No constants are given. Whether binding was seen depends on the method and setting. Binding seen in cells or lysates may run through a third protein. Binding calls can cover weak binding; strength is not graded here. For some of these results: Sequences can lack the tags named with a protein.

The target in assay [1] is T1, RFP–AtVPS52 (Arabidopsis) (UniProt Q94KD3).
T1 sequence: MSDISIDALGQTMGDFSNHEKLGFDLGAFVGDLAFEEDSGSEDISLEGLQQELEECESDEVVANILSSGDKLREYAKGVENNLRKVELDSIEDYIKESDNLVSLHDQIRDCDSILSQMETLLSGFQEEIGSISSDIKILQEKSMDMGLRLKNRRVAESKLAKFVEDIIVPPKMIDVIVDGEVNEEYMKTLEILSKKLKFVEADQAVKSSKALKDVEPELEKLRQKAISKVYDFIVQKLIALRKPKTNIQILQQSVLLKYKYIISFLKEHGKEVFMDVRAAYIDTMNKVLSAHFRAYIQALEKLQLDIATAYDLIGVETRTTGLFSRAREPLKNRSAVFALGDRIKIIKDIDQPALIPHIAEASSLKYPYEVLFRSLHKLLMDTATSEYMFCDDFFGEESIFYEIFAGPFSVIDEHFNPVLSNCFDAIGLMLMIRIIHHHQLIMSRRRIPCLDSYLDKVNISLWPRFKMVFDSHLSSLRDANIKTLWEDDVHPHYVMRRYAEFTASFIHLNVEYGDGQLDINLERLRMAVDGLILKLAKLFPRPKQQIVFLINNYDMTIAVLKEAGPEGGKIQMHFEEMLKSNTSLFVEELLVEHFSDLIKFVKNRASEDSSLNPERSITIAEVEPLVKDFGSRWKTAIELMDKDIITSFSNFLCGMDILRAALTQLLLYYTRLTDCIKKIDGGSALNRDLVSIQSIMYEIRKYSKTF
The assay is described as follows: co-IP; proteins co-expressed in N. benthamiana by agroinfiltration, with or without the other effector (myc–Mp1 or GFP–Mp58); lysate in GTEN buffer with 0.2% Triton X-100, 10 mM DTT; RFP-trap, 4 °C, 2 h; blot.

Assay [2] has as its target T2, His–AtVPS52^1–170 (Arabidopsis) (UniProt Q94KD3).
T2 sequence: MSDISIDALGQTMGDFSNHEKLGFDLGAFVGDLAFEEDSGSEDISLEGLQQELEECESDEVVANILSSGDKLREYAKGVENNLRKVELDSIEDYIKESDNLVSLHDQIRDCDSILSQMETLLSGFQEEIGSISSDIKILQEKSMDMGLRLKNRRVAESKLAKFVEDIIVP
The assay is described as follows: pull-down; His- and GST-tagged proteins expressed individually in E. coli, lysates combined, IMAC of the His-tagged protein, eluates blotted against GST.

For GFP–Mp1 (Myzus persicae), in assay [1], the binding result is on record as “binds”. The same measure, in the same setting: for GFP–Mp58 (Myzus persicae) the value was “binds”. Regarding GST–Mp1 (Myzus persicae), the binding result in assay [2] is given as “binds”. As for myc–Mp1 (Myzus persicae), the binding entry in assay [1] is given as “binds”.

Values taken from article PMC13293125.
